PubChem BioAssay AID652272 | Drosophila RNAi Screening Center | 2013
The screen tested about 21,000 reagents; below is an unselected part of those with a known target gene and a result. Of all reagents, 503 (2.4%) got an active call. 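Raw plate light values, not normalised; calls rest on replicate z-scores that were not deposited; hits include reporter decreases as well as increases.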 Entries without a mark were called inactive. Reagents against one gene are numbered here. Not stated in the record: the amount of reagent, the time to read-out.

Aim: 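Genes whose knock-down decreases or increases Hedgehog reporter output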 (primary screen)
Cells: Drosophila clone 8 (Cl8) cells
Reagents: long dsRNA against Drosophila genes
Measured: 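Plate reader light from a firefly reporter under a ptc promoter fragment that responds to Hedgehog, with Renilla light as transfection reference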
Reading the numbers: firefly Hh reporter signal: higher = more ptc reporter light; Renilla reference signal: higher = more Renilla control light
Call rule: 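Called a hit if the two-replicate mean z-score lies below -2 or above +3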
Meaning of the calls: active = hit: reporter lowered or raised; inactive = not a hit

CG14427 → firefly Hh reporter signal, replicate 1 = 93778; firefly Hh reporter signal, replicate 2 = 2.46e5; Renilla reference signal, replicate 1 = 3512; Renilla reference signal, replicate 2 = 10029
CG4781 → firefly Hh reporter signal, replicate 1 = 97193; firefly Hh reporter signal, replicate 2 = 74205; Renilla reference signal, replicate 1 = 2373; Renilla reference signal, replicate 2 = 6294
Mybbp1A (MYB binding protein 1a) → firefly Hh reporter signal, replicate 1 = 91738; firefly Hh reporter signal, replicate 2 = 64154; Renilla reference signal, replicate 1 = 2189; Renilla reference signal, replicate 2 = 2464
CG6878 → firefly Hh reporter signal, replicate 1 = 83980; Renilla reference signal, replicate 1 = 2120; Renilla reference signal, replicate 2 = 2307
AOX1 (Aldehyde oxidase 1) → firefly Hh reporter signal, replicate 1 = 1.73e5; firefly Hh reporter signal, replicate 2 = 74528; Renilla reference signal, replicate 1 = 6054; Renilla reference signal, replicate 2 = 979
Cyp4e1 (Cytochrome P450 4e1) → firefly Hh reporter signal, replicate 1 = 64981; firefly Hh reporter signal, replicate 2 = 48633; Renilla reference signal, replicate 1 = 1563; Renilla reference signal, replicate 2 = 3467
Glut3 (Glucose transporter type 3) → firefly Hh reporter signal, replicate 1 = 88563; firefly Hh reporter signal, replicate 2 = 90227; Renilla reference signal, replicate 1 = 3174; Renilla reference signal, replicate 2 = 2589
Dmtn (Dementin) → firefly Hh reporter signal, replicate 1 = 89024; firefly Hh reporter signal, replicate 2 = 84066; Renilla reference signal, replicate 1 = 3757; Renilla reference signal, replicate 2 = 3403
E2f2 (E2F transcription factor 2) → firefly Hh reporter signal, replicate 1 = 1.04e5; firefly Hh reporter signal, replicate 2 = 1.10e5; Renilla reference signal, replicate 1 = 4337; Renilla reference signal, replicate 2 = 4568
Mt2 (Methyltransferase 2) → firefly Hh reporter signal, replicate 1 = 77525; firefly Hh reporter signal, replicate 2 = 52395; Renilla reference signal, replicate 1 = 2040; Renilla reference signal, replicate 2 = 4699
Nulp1 (Nuclear localized protein 1) → firefly Hh reporter signal, replicate 1 = 1.27e5; firefly Hh reporter signal, replicate 2 = 83559; Renilla reference signal, replicate 1 = 4704; Renilla reference signal, replicate 2 = 3008
CG3701 (retired record) #1 → firefly Hh reporter signal, replicate 1 = 79043; firefly Hh reporter signal, replicate 2 = 81680; Renilla reference signal, replicate 1 = 1218; Renilla reference signal, replicate 2 = 6944
CG3701 (retired record) #2 → firefly Hh reporter signal, replicate 1 = 63383; firefly Hh reporter signal, replicate 2 = 68532; Renilla reference signal, replicate 1 = 1011; Renilla reference signal, replicate 2 = 6306
Spn42De (Serpin 42De) → firefly Hh reporter signal, replicate 1 = 73078; firefly Hh reporter signal, replicate 2 = 49546; Renilla reference signal, replicate 1 = 1186; Renilla reference signal, replicate 2 = 3741
CG32277 → firefly Hh reporter signal, replicate 1 = 73992; firefly Hh reporter signal, replicate 2 = 56330; Renilla reference signal, replicate 1 = 2406; Renilla reference signal, replicate 2 = 3637
CG15278 → firefly Hh reporter signal, replicate 1 = 1.06e5; firefly Hh reporter signal, replicate 2 = 49979; Renilla reference signal, replicate 1 = 3015; Renilla reference signal, replicate 2 = 4555
nebu (nebulosa) #1 → firefly Hh reporter signal, replicate 1 = 1.01e5; firefly Hh reporter signal, replicate 2 = 1.18e5; Renilla reference signal, replicate 1 = 3896; Renilla reference signal, replicate 2 = 4535
nebu (nebulosa) #2 → firefly Hh reporter signal, replicate 1 = 59411; firefly Hh reporter signal, replicate 2 = 44937; firefly Hh reporter signal, replicate 3 = 58828; Renilla reference signal, replicate 1 = 5015; Renilla reference signal, replicate 2 = 5136
Brca2 (BRCA2, DNA repair associated) #1 → firefly Hh reporter signal, replicate 1 = 73248; firefly Hh reporter signal, replicate 2 = 53218; Renilla reference signal, replicate 1 = 1196; Renilla reference signal, replicate 2 = 5320
Brca2 (BRCA2, DNA repair associated) #2 → firefly Hh reporter signal, replicate 1 = 75544; firefly Hh reporter signal, replicate 2 = 58707; Renilla reference signal, replicate 1 = 1511; Renilla reference signal, replicate 2 = 5924
CG9777 → firefly Hh reporter signal, replicate 1 = 98469; firefly Hh reporter signal, replicate 2 = 2.13e5; Renilla reference signal, replicate 1 = 3708; Renilla reference signal, replicate 2 = 9089
CG42402 → firefly Hh reporter signal, replicate 1 = 75910; firefly Hh reporter signal, replicate 2 = 3.27e5; Renilla reference signal, replicate 1 = 2368; Renilla reference signal, replicate 2 = 13660
CG6231 → firefly Hh reporter signal, replicate 1 = 5.58e5; firefly Hh reporter signal, replicate 2 = 1.03e5; Renilla reference signal, replicate 1 = 28726; Renilla reference signal, replicate 2 = 2949
CG42703 → firefly Hh reporter signal, replicate 1 = 1.21e5; firefly Hh reporter signal, replicate 2 = 3.35e5; Renilla reference signal, replicate 1 = 2896; Renilla reference signal, replicate 2 = 15925
p115 → firefly Hh reporter signal, replicate 1 = 59376; firefly Hh reporter signal, replicate 2 = 2.41e5; Renilla reference signal, replicate 1 = 1803; Renilla reference signal, replicate 2 = 8557
CG7203 → firefly Hh reporter signal, replicate 1 = 96693; firefly Hh reporter signal, replicate 2 = 44759; Renilla reference signal, replicate 1 = 2576; Renilla reference signal, replicate 2 = 4500
CheB98a (Chemosensory protein A 98a) → firefly Hh reporter signal, replicate 1 = 1.06e5; firefly Hh reporter signal, replicate 2 = 1.03e5; Renilla reference signal, replicate 1 = 3960; Renilla reference signal, replicate 2 = 3016

A stretch of the results above, for reference:
CG9777 → firefly Hh reporter signal, replicate 1 = 98469; firefly Hh reporter signal, replicate 2 = 2.13e5; Renilla reference signal, replicate 1 = 3708; Renilla reference signal, replicate 2 = 9089
CG42402 → firefly Hh reporter signal, replicate 1 = 75910; firefly Hh reporter signal, replicate 2 = 3.27e5; Renilla reference signal, replicate 1 = 2368; Renilla reference signal, replicate 2 = 13660
